# Measured values reported in US20220071891A1, “Extract of Chlamydomonas Acidophila, Method for Preparing Same and Cosmetic Compositions and Dermatological Compositions Comprising Same” (Laboratoires Expanscience, priority 2018, published 2022).
# At least one compound was matched to its structure with a doubt left.
# System: epidermal keratinocytes subjected to Th2 stress
# Assay: qRT-PCR gene expression in keratinocytes subjected to Th2 stress
# Type: cell-based, human
# Details: 10 μM, Th2 cytokine cocktail 24 h
# Procedure: The potential anti-allergic effects of the Chlamydomonas acidophila extract were investigated on: • Gene expression of pro-inflammatory chemokines in normal human epidermal keratinocytes (NHEK) stimulated by a mixture of Th2 cytokines (IL-4+IL-13+IL-22+TNF-α) mimicking a late-phase “atopic dermatitis” type phenotype (chronic inflammation). • Activation of human basophils induced by fMLP. This activation was measured using a specific kit and flow cytometry analysis by quantifying a specific marker of activated basophil cells (CD63) in the total population of basophils identified by expression of the CCR3 marker. In parallel, activation with the anti-FCεRI antibody was performed as a positive control.
# Normal human epidermal keratinocytes were preincubated for 24 hours in the presence of the CAP extract at 0.01% dry matter (DM) or reference JAK inhibitor I at 10 μM. After preincubation, the cells were retreated with the CAP extract or reference and then the cells were stimulated with a Th2 cytokine cocktail (IL4+1L13+1L22+TNFα at 10 ng/ml) for 24 hours.
# At the end of incubation, gene expression of markers of interest was assessed by qRT-PCR.
compound,measurement,value
CC(C)(C)c1nc2c3cc[nH]c(=O)c3c3cc(F)ccc3c2[nH]1 [JAK inhibitor],CCL5 Change (%) vs Th2,−7/% vs Th2
